Source: paper PMC12177040
These are yes or no findings as the source states them, for the method shown. Binding seen in cells or lysates may run through a third protein. Some results given as binding are weak or reduced against the parent protein; the word gives no strength.

Molecular target: T1, mCherry-USP37^WT (human) (UniProt Q86T82)
T1 sequence: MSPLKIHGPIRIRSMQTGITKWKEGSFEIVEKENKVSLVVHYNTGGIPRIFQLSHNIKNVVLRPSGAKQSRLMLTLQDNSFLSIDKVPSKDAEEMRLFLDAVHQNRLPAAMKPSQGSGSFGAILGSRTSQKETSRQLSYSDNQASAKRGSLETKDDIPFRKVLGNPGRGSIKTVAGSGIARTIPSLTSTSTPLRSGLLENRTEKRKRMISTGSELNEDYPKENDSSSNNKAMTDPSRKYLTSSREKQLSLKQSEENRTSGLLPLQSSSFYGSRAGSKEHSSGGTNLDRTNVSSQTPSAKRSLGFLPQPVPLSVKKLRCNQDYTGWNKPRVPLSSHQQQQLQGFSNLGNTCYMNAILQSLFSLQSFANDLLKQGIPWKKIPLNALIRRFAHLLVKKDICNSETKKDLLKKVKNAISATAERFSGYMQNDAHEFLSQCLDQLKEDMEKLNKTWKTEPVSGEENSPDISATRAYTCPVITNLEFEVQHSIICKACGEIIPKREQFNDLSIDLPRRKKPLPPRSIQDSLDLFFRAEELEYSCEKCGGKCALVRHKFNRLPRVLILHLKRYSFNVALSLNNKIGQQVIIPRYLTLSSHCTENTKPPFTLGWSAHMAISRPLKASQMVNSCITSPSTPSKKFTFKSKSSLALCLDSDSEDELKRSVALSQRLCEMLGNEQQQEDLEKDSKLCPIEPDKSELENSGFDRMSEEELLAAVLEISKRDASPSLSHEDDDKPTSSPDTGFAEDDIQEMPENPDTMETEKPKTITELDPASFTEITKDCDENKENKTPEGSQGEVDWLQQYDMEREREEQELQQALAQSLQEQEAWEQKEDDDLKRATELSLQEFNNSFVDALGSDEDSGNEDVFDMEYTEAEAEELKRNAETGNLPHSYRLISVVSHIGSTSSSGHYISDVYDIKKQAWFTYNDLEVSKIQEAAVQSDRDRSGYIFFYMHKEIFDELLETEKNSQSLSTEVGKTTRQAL
Assay: co-IP; mCherry immunoprecipitation with RFP-trap magnetic beads from lysates of transfected HEK293T cells, then immunoblotting; IP buffer 20 mM Tris-HCl pH 7.5, 150 mM NaCl, 2 mM MgCl2, 10% glycerol, 0.5% NP40, with benzonase; 2 h at 4 °C; n = 3

B1: CDC45 (protein, UniProt O75419 1-566)
chain: MFVSDFRKEFYEVVQSQRVLLFVASDVDALCACKILQALFQCDHVQYTLVPVSGWQELETAFLEHKEQFHYFILINCGANVDLLDILQPDEDTIFFVCDTHRPVNVVNVYNDTQIKLLIKQDDDLEVPAYEDIFRDEEEDEEHSGNDSDGSEPSEKRTRLEEEIVEQTMRRRQRREWEARRRDILFDYEQYEYHGTSSAMVMFELAWMLSKDLNDMLWWAIVGLTDQWVQDKITQMKYVTDVGVLQRHVSRHNHRNEDEENTLSVDCTRISFEYDLRLVLYQHWSLHDSLCNTSYTAARFKLWSVHGQKRLQEFLADMGLPLKQVKQKFQAMDISLKENLREMIEESANKFGMKDMRVQTFSIHFGFKHKFLASDVVFATMSLMESPEKDGSGTDHFIQALDSLSRSNLDKLYHGLELAKKQLRATQQTIASCLCTNLVISQGPFLYCSLMEGTPDVMLFSRPASLSLLSKHLLKSFVCSTKNRRCKLLPLVMAAPLSMEHGTVTVVGIPPETDSSDRKNFFGRAFEKAAESTSSRMLHNHFDLSVIELKAEDRSKFLDALISLLS
- binding: binds
